Most values lie at the floor of the assay. Slopes are relative: functional sequences can read slightly below zero.

The data set has as its system Saccharomyces cerevisiae PS128 hsf1 delta, HSF1(1-493) fusion. The data set is described as follows: growth estimate (transactivation domain function in HSF1 fusion, heat-shock survival) (a.u. (slope of normalised read count over time)); higher = stronger growth at 37°C, i.e. more transactivation activity. As to conditions: library: random library.
In the case of TRTKSMEKRIEIVGAAYLMP, the growth estimate is -0.225. For YAKPRPVTGDLYNSV, the growth estimate was under -0.25. Regarding MANNGVLNGA, the growth estimate was under -0.25. For QFRLRGVSAYGNTSRVGAGT the value was under -0.25; for GPSFIDSASPVCLISHPVGP, under -0.25.

Consider GDLIKMYRGMCKCFCMVYGP, for which the growth estimate is under -0.25. Consider GWGNPVA, for which the growth estimate was under -0.25. Regarding WLSRREHALSGKVLIGWVPL, the growth estimate is under -0.25.

As to WGLFVPRRPAQLLPRGGDMT, the growth estimate is under -0.25.

For the substance VRVLY, the growth estimate was under -0.25. For FPRRSDPRG the value was under -0.25; for PDRYTETRLGGCIPIIENH, under -0.25; for LATGL, under -0.25. GNYNARNGRAVRTF: the growth estimate was under -0.25. Take SAGKSFGGNTDLPLVIA: the growth estimate is under -0.25. For the substance CVSLRQTPTCSNQNRRPNSL, the growth estimate is under -0.25. For CSTCTRLRPVEEHPESGWRH the value was under -0.25. For TQLSHRAKGSNAPSLAHLIR the value was under -0.25. As for GQHGRIEIASLPFPYIQKRP, the growth estimate was under -0.25. On to QLRTTTIMSIGYLAIFYGDR, for which the growth estimate was under -0.25. On to SSVQPHGGNSRSWIRLRGRC, for which the growth estimate was under -0.25. In the case of SWCAQAPTSGRSSDSH, the growth estimate was under -0.25. With PFMNARVGGSQCRDVKCLLR, the growth estimate is under -0.25. For TRGPEFFCSDDPVGP the value was under -0.25; for PSSTCR, under -0.25. On to WVGCSEHNCRSRICRAFLVP, for which the growth estimate was under -0.25. As to VGLSDFDRLCRVTRAQHVVQ, the growth estimate was -0.204. For IFDRDPEAKSDAQLDHSGIK the value was under -0.25; for QGFIYYGLTMSLTP, under -0.25; for DTARCFQVQNRVRTPDLPHL, under -0.25.

CGTEGRRACRGRISLSLQWP: the growth estimate is under -0.25. Take SVPACGVYTYDHNVRCSVSV: the growth estimate is under -0.25.

With ETRGYFSLEMRLAAKNNRTF, the growth estimate is under -0.25.

Turning to VVSVL, the growth estimate was under -0.25. In the case of PRWTVPHHP, the growth estimate was under -0.25. As for MNVHSMKVARFLYRGNPVAL, the growth estimate was under -0.25. To CAARSVGETQGRL belongs under -0.25. For VVIVSNMAL the value was under -0.25; for KKHAFCRVVIQHVDTEVTSG, -0.243. Consider ARYRGHQSLSSALQAISTGD, for which the growth estimate is under -0.25.

Consider GYCHQLYTEFGREIAACEYD, for which the growth estimate was under -0.25. With SGSLLSSNAILWFGELIATP, the growth estimate is under -0.25. GNRIRTLFRYERAVLAFVPQ: the growth estimate is under -0.25.

Regarding QSQLLPGCRAHKHRARLCKR, the growth estimate is under -0.25. For TQVGRRDDNVRVEVVSVAVF the value was under -0.25; for SRCY, under -0.25. In the case of QGYCESMGGLRLNDLIPCQA, the growth estimate is under -0.25.

In the case of TYESGC, the growth estimate was under -0.25. Turning to RRAVINGTWVGEHSWVWSVL, the growth estimate is under -0.253. As to PGRYSVKKYTSAKPE, the growth estimate is under -0.25. For the substance DAYPLWEQEEVSRMPNSLCA, the growth estimate was under -0.25. To CQDGVIFNKWPC belongs under -0.25. Turning to FLIR, the growth estimate was under -0.25. In the case of GKRVFSREIIFSTLMPPYVG, the growth estimate is under -0.25. On to TGIRPRG, for which the growth estimate is -0.246. For GGEGV the value was under -0.25; for EEVIVSQGCRDPALIQRHEG, under -0.25.

Turning to HYAYIL, the growth estimate is under -0.25.

Consider LVDLSVRGQLGRKKP, for which the growth estimate was under -0.25.

In the case of GYRQAEAVASLEEQLGVLIH, the growth estimate was under -0.25. With TYSSADRLGCTSSIGVT, the growth estimate was under -0.25.

For the substance RDSRKVSRSWNNRTEAKYD, the growth estimate was under -0.25.

The values above are taken from the supplement of paper PMC5949888.
